A weaker result is weaker than the reference pair of the same experiment. Protein sequences can lack the tags named with them.
Target: T1, Grb14 SH2 domain (aa 426-540) (Homo sapiens) (UniProt Q14449)
T1 sequence (looked up): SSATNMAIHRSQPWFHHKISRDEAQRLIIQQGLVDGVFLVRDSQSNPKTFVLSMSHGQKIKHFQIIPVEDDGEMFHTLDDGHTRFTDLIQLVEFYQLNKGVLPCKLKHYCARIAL
Assay: EMSA
Details: lower affinity; data not shown; purified recombinant protein; protein details: GST; label: 32P

GUAUAUGUGAGGAUUUUUAUUGAUUGGGGAUCUUGGAGUUUUUCAUUGUCGCUAUUGAUUUUUACUUCAUGGG [EGF-R 2/2A]
binding result: binds more weakly

From patent US20040121323, “Mrna binding motif” (published 2004)
